The list shows a part of the results.
Compound: COc1ccc(Cn2ccc3cc(C)c(C(=O)NO)cc32)cc1
Experiment: dose-dependent thermal stabilisation call (2D-TPP, DLPTP, 10% FDR) (binary (1 = stabilised)); higher = stabilised by the compound
Details: system: HL-60 intact cells; concentration range 0.04-10 µM
Protocol: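 2D thermal proteome profiling in intact HL-60 cells treated with BRD-3811 (0, 0.04, 0.29, 2, 10 uM) for 90 min at 37 C, then heated 3 min at one of 12 temperatures (42-63.9 C). Soluble protein was quantified by TMT10 MS. The value is the DLPTP call of the paper: dose-dependent thermal stabilisation over all temperatures at 10% FDR (F-test of a dose-response against a flat model); one experiment, one call per tested protein.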

Sequences of proteins named here, by UniProt entry; tags and fusion partners are left off. A change or cut given only in a name is not applied to a line headed by its entry.
UniProt Q9UKM9: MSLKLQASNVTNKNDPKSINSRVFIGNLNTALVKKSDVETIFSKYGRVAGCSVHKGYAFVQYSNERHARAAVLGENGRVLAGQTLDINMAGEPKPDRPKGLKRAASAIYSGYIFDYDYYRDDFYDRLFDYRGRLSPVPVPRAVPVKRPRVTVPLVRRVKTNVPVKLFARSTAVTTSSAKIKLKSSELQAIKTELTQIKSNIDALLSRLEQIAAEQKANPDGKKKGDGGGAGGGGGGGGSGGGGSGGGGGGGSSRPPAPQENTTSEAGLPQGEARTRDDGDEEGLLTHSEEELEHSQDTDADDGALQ
UniProt Q9H5N1: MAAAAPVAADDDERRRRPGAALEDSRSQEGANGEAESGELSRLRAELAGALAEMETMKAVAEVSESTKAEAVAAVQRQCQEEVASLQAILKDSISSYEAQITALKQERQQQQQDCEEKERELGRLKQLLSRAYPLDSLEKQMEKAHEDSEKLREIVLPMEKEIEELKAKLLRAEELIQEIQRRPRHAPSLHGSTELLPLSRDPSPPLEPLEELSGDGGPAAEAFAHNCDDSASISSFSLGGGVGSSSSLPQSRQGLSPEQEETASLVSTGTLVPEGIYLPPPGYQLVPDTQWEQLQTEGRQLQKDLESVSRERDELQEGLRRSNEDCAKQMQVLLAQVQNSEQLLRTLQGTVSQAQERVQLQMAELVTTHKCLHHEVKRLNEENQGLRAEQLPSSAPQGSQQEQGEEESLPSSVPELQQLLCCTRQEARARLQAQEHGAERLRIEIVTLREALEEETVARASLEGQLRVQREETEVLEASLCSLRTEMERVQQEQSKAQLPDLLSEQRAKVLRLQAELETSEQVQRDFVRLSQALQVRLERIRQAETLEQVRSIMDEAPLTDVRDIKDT
UniProt Q9Y580: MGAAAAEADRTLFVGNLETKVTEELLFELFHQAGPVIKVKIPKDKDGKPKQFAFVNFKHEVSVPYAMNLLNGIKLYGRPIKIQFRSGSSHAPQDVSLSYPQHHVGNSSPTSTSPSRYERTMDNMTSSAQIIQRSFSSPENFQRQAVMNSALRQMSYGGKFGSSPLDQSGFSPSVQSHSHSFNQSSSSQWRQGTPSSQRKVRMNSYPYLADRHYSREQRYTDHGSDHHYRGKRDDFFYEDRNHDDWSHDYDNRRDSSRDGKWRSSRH
UniProt Q6NUM9: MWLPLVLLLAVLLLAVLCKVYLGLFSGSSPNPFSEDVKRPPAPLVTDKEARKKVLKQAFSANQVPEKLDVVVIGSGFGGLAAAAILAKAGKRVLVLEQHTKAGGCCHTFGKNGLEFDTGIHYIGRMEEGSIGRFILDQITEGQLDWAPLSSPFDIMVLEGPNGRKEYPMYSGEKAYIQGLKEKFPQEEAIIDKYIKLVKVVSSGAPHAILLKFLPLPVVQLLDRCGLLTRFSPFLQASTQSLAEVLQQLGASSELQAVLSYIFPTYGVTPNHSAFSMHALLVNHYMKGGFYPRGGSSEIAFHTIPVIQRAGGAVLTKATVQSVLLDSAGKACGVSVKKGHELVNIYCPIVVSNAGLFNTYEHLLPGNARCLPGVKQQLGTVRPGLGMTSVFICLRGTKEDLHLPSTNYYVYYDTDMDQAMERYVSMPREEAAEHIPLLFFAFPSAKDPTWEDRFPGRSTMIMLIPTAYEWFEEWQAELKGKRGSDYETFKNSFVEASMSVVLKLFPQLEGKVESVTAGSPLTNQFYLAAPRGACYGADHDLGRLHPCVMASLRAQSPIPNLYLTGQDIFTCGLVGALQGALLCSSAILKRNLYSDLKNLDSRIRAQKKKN
UniProt Q6IQ22: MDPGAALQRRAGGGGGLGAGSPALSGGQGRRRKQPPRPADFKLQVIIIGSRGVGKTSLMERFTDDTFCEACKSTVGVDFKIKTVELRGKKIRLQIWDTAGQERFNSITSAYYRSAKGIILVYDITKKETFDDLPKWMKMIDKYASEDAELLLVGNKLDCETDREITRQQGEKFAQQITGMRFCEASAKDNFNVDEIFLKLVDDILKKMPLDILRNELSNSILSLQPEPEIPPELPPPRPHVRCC
UniProt Q9H082: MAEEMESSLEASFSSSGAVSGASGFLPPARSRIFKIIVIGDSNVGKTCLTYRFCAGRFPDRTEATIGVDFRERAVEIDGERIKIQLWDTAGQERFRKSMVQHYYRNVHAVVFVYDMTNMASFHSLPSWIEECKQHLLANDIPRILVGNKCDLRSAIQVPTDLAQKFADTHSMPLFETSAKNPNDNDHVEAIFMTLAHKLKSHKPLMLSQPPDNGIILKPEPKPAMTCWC
UniProt Q8WWW0: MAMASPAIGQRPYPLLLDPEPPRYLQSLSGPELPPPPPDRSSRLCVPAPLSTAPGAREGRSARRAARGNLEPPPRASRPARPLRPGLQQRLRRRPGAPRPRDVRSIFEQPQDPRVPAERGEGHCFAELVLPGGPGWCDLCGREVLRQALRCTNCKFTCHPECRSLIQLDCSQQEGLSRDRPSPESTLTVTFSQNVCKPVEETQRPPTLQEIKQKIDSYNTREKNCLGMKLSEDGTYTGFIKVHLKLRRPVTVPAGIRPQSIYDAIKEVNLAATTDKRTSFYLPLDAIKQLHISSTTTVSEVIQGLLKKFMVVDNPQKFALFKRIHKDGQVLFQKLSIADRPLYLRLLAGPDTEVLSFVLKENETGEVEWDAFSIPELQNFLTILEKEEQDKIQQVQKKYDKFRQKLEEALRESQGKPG
UniProt Q8IXI2: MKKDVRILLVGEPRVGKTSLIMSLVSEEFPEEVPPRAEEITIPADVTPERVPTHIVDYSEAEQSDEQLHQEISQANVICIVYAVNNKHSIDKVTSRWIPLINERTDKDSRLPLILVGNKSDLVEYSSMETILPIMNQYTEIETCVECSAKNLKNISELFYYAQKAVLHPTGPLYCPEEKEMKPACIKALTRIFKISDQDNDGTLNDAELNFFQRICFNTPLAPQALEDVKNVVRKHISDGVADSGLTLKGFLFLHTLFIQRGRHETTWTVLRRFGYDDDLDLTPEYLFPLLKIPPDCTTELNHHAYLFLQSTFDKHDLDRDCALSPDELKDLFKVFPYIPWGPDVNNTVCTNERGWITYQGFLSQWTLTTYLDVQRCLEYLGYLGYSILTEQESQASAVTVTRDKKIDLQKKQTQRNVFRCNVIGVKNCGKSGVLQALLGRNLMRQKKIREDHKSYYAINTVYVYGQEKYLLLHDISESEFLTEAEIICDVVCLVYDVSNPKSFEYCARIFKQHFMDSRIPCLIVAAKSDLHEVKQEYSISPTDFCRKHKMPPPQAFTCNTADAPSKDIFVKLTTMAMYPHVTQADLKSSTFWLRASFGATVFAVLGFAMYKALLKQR
UniProt Q6NUQ1: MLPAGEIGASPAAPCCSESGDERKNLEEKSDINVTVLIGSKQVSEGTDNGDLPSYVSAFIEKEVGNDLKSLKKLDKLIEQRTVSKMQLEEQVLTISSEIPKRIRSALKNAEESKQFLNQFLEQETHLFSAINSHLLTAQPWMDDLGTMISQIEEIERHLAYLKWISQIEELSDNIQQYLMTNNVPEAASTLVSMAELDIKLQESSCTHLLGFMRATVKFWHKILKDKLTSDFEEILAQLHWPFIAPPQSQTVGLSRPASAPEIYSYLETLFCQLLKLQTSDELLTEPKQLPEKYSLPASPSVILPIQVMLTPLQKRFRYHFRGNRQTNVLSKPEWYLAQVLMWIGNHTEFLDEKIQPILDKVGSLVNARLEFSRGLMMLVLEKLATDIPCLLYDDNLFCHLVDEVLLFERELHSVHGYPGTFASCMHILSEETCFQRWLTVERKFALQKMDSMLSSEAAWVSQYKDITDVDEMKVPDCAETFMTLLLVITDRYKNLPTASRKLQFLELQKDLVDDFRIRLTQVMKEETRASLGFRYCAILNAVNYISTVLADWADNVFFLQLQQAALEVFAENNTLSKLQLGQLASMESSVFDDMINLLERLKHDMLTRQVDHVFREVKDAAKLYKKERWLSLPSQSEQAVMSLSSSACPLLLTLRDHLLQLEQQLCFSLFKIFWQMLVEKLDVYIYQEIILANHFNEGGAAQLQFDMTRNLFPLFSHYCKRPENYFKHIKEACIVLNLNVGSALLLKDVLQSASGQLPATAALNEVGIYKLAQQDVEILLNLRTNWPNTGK
UniProt Q92698: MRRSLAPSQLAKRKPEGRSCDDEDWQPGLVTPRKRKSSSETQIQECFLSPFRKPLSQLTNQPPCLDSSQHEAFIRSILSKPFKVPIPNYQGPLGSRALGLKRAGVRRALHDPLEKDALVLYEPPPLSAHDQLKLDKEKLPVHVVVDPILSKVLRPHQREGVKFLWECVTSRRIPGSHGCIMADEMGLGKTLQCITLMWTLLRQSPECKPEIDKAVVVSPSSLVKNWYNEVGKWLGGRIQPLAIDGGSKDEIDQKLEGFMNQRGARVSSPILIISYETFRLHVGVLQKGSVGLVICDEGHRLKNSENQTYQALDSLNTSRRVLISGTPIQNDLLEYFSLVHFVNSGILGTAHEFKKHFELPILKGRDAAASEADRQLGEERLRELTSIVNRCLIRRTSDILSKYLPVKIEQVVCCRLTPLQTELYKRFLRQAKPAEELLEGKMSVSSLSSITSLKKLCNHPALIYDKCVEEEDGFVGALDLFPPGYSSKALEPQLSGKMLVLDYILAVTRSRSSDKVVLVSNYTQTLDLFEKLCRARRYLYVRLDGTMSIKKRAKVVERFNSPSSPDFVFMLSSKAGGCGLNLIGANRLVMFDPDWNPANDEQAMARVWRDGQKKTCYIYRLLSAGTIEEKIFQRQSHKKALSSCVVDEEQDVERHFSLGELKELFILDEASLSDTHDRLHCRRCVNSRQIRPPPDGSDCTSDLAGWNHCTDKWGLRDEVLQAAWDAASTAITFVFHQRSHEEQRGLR
UniProt P61225: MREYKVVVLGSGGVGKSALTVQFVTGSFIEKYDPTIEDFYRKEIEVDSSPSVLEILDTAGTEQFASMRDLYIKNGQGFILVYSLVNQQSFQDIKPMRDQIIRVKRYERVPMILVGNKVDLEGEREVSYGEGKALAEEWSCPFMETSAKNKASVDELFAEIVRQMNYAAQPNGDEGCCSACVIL
UniProt P47224: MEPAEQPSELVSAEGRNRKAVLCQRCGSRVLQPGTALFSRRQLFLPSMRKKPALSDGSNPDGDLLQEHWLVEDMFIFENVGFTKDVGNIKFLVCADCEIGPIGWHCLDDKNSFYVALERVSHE
UniProt P84095: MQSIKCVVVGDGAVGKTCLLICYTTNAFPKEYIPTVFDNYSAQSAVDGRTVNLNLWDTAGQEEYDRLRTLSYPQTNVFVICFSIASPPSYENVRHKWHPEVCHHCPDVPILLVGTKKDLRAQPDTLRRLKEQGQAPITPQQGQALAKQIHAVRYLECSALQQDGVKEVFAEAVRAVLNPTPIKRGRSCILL
UniProt O60930: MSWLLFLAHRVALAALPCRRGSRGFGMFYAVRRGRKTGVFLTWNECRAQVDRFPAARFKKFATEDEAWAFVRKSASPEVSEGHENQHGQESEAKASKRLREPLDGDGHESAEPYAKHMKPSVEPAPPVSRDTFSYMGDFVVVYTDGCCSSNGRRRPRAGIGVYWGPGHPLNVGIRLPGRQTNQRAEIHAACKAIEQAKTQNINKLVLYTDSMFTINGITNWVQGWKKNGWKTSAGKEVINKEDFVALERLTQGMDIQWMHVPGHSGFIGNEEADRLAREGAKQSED
UniProt P18754: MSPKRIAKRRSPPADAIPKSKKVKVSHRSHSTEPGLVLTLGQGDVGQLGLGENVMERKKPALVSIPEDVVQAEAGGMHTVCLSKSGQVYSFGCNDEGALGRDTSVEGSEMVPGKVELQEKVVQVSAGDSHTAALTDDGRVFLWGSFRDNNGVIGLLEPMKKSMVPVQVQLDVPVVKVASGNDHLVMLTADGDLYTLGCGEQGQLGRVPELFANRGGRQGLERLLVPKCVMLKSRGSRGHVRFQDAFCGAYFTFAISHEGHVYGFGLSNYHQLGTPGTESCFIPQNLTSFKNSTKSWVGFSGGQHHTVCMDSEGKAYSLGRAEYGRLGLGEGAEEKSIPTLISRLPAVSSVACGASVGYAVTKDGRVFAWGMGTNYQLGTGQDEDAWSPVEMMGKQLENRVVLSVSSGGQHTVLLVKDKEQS
UniProt Q9NS23: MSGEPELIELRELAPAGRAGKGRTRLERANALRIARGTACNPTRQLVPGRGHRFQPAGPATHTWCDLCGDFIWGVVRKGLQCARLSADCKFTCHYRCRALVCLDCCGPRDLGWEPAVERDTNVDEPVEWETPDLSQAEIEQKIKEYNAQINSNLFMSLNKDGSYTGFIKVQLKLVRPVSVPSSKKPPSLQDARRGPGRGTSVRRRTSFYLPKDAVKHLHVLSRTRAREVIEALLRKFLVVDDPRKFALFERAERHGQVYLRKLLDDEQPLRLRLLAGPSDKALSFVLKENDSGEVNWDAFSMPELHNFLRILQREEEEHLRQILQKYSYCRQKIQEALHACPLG
UniProt Q9HBH0: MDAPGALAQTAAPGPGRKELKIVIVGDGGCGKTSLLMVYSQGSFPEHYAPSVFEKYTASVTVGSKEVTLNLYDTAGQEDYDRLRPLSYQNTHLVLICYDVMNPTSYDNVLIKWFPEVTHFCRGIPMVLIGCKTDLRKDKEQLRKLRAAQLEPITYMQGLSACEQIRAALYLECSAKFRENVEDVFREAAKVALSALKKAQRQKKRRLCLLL

Target | dose-dependent thermal stabilisation call
RALY (UniProt Q9UKM9) | inactive: 0
RABEP2 (UniProt Q9H5N1) | inactive: 0
RBM16 (UniProt Q9UPN6) | inactive: 0
RBM7 (UniProt Q9Y580) | inactive: 0
RBL1 (UniProt P28749) | inactive: 0
RETSAT (UniProt Q6NUM9) | inactive: 0
RAC3 (UniProt P60763) | inactive: 0
RAB12 (UniProt Q6IQ22) | inactive: 0
RAB33B (UniProt Q9H082) | inactive: 0
RASSF5 (UniProt Q8WWW0) | inactive: 0
RHOT1 (UniProt Q8IXI2) | inactive: 0
RNASE3 (UniProt P12724) | inactive: 0
RINT1 (UniProt Q6NUQ1) | inactive: 0
RAD54L (UniProt Q92698) | inactive: 0
RBM28 (UniProt Q9NW13) | inactive: 0
RAP2B (UniProt P61225) | inactive: 0
RAC1 (UniProt P63000) | inactive: 0
RAP1A (UniProt P62834) | inactive: 0
REPIN1 (UniProt Q9BWE0) | inactive: 0
RABIF (UniProt P47224) | inactive: 0
RHOG (UniProt P84095) | inactive: 0
RNASEH1 (UniProt O60930) | inactive: 0
RAE1 (UniProt P78406) | inactive: 0
RCC1 (UniProt P18754) | inactive: 0
RASSF1 (UniProt Q9NS23) | inactive: 0
RAPGEF2 (UniProt Q9Y4G8) | inactive: 0
RHOF (UniProt Q9HBH0) | inactive: 0

Shown with each value named: entries from further up.
RBM7 (UniProt Q9Y580)
  dose-dependent thermal stabilisation call: inactive: 0
RAC1 (UniProt P63000)
  dose-dependent thermal stabilisation call: inactive: 0

Reference: the supplement of paper PMC7666118
